These results are taken from article PMC6048156.

Chains of the proteins cited; added tags and fusions are not shown.
UniProt P03372: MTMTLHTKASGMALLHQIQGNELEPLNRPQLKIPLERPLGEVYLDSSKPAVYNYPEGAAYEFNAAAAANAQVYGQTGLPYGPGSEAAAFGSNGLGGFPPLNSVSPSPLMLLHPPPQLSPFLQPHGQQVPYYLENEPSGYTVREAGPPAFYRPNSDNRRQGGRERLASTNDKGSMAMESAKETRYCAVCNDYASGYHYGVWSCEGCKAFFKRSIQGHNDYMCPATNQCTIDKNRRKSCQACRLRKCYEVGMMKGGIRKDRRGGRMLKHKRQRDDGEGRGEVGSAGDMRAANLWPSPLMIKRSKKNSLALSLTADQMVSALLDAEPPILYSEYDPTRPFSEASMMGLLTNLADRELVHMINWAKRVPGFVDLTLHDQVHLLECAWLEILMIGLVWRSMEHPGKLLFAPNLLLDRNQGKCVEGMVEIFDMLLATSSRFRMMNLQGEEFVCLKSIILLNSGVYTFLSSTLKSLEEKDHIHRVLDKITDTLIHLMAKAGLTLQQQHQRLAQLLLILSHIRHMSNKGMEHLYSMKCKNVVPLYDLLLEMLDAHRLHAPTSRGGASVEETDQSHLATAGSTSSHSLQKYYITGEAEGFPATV

No constants are given. Whether binding was seen depends on the method and setting. Binding seen in cells or lysates may run through a third protein. Some entries that bind do so weakly or less than the wild type. Tags and fused reporters may be left off the sequences shown.

In the assay the target is T1, EGFP-WBP2 (WW domain-binding protein 2) (UniProt Q969T9).
T1 sequence: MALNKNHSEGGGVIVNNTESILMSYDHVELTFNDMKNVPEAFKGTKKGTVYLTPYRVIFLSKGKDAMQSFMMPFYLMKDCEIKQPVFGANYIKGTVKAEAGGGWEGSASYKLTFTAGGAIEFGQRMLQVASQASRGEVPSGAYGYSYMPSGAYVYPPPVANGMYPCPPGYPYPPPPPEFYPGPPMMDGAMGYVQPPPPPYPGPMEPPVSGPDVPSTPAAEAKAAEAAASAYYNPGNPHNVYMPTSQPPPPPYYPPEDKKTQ
Put plainly: co-IP; lysates of MCF-7 cells (EGFP control group and EGFP-WBP2 group) incubated with WBP2 or ERα antibodies overnight, protein A/G beads 3 h at RT, western blotting.

On to “Oestrogen receptor alpha (ERα) (from UniProt P03372 1-595)”, for which the binding result is “binds”.
